In PubChem BioAssay AID651640 (Broad Institute, 2012):
Hit rate of the full screen: of about 350,000 compounds, about 6,000 (1.7%) were called active. The shares of active, inactive and inconclusive entries below differ from those in the screen. Rule as the data show it: active = CPE inhibition above about 20% (passing the limit was not always enough); inconclusive = no clear call, values can overlap the other calls; tested in BHK-21 cells. Some compounds were tested as several samples or in several runs, with calls that do not always agree.

Assay: protection of cells from dengue 2 killing – plate reader, single concentration, primary screen (AID 651640);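 also: 0% = median of neutral control wells and 100% = median of positive control wells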
Conditions: DENV2-infected cells, cytopathic effect rescue, at 9.99 µM, active compounds read high
For `CCCOc1ccc(C(=O)OCCN(CC)CC)cc1N`, the CPE inhibition was inactive: 0.0695%. With `C[C@@H]1CCCCO[C@@H](CN(C)S(=O)(=O)c2cn(C)cn2)[C@@H](C)CN([C@@H](C)CO)C(=O)c2cc(NS(=O)(=O)c3cn(C)cn3)ccc2O1` the CPE inhibition was inactive: 1.38%. In the case of `CCOc1ccccc1CNn1cnnc1SCC(=O)NC(C)(C)C`, the CPE inhibition is reported as inconclusive: 45.8%. For `CC(C)CC#Cc1cnc2c(c1)C(=O)N([C@H](C)CO)C[C@H](C)[C@H](CN(C)Cc1ccccc1)O2`, the CPE inhibition was active: 23.3%. In the case of `CN(C)CC(=O)N1CCCCN2[C@H](C1)[C@H](c1ccc(-c3ccccc3)cc1)[C@@H]2CO`, the CPE inhibition is reported as inconclusive: 22.4%. With `CCOC(=O)N1CCN(C2=C(NS(=O)(=O)c3ccc(NC(C)=O)cc3)C(=O)c3ccccc3C2=O)CC1` the CPE inhibition was inconclusive: 39.3%. For `CC(=O)Nc1cc(-c2cccc(C(=O)N(C)C)c2)cn2c(-c3cccc(C(=O)N(C)C)c3)cnc12`, the CPE inhibition was inconclusive: 29.4%. In the case of `COc1ccc(S(=O)(=O)Nc2ccc3c(c2)CC(=O)N([C@H](C)CO)C[C@@H](C)[C@H](CN(C)Cc2ccc(Cl)c(Cl)c2)O3)cc1`, the CPE inhibition is reported as active: 38.5%. For `Cn1nnc2cc(C(=O)Nc3ccc(Cl)cc3)ccc21`, the CPE inhibition was inconclusive: 27.2%. For `CCOC(=O)N1CCN(C(=O)c2cc(COc3ccc(OC)cc3Cl)on2)CC1`, the CPE inhibition was inconclusive: 40.9%. With `C[C@H](CO)N1C[C@H](C)[C@H](CN(C)C(=O)C2CCOCC2)Oc2ncc(Br)cc2C1=O` the CPE inhibition was inactive: 8.1%. With `CN(C)CCCN(C(=O)c1ccc([N+](=O)[O-])s1)c1nc2cc3c(cc2s1)OCCO3` the CPE inhibition was inactive: -0.474%. With `C[C@@H]1CN([C@@H](C)CO)C(=O)Cc2cc(NC(=O)CCCCCC(=O)Nc3ccccc3N)ccc2O[C@H]1CN(C)Cc1ccc(Cl)c(Cl)c1` the CPE inhibition was active: 35.5%. In the case of `CCOc1ccccc1NC(=S)N1C2CCC1CC(NC(=O)NC13CC4CC(CC(C4)C1)C3)C2` (stereo not given), the CPE inhibition is reported as inconclusive: 26.9%. For `COc1ccc2c3c([nH]c2c1)[C@@H](CO)N(C(=O)Cc1ccccc1)CC31CN(C(=O)Nc2ccccc2F)C1`, the CPE inhibition was inactive: -0.136%. For `C[C@@H]1CCCCO[C@H](CN(C)C(=O)Nc2ccc(C(F)(F)F)cc2)[C@H](C)CN([C@H](C)CO)C(=O)c2cc(NS(=O)(=O)c3cn(C)cn3)ccc2O1`, the CPE inhibition was inactive: -6.25%. With `COCC#Cc1ccc([C@@H]2[C@@H](CO)N3C(=O)CN(C(=O)C4CCC4)C[C@@H]23)cc1` the CPE inhibition was inconclusive: 27.5%. With `COC(=O)C[C@H]1CC[C@@H]2[C@H](COc3ccc(NC(=O)NC(C)C)cc3C(=O)N2C)O1` the CPE inhibition was inconclusive: 40.1%. In the case of `CCO[C@H]1OC(C(=O)NC2CC2)=C[C@@H](c2ccc(C(F)(F)F)cc2)[C@@H]1CCCO`, the CPE inhibition is reported as active: 24.8%. With `C[C@H](CO)N1C[C@H](C)[C@@H](CN(C)S(C)(=O)=O)Oc2ccc(NC(=O)CCCN(C)C)cc2C1=O` the CPE inhibition was inconclusive: 32.1%. For `C/C=C/c1ccc([C@@H]2[C@@H](CO)N3C(=O)CN(C(=O)c4ccncc4)C[C@H]23)cc1`, the CPE inhibition was inconclusive: 20.3%. For `C[C@@H]1CN([C@@H](C)CO)C(=O)c2cccc(NC(=O)Nc3ccc(F)cc3)c2O[C@H]1CN(C)C(=O)Nc1ccc(F)cc1`, the CPE inhibition was inactive: 14.7%. In the case of `O=C(Nc1cc(F)ccc1F)N1CC(=O)N2[C@H](CO)[C@H](c3ccc(-c4cccnc4)cc3)[C@@H]2C1`, the CPE inhibition is reported as active: 29.5%. In the case of `CN1C(c2ccccc2)CC(C)(O)CC1c1ccccc1` (stereo not given), the CPE inhibition is reported as inconclusive: 21.1%. With `O=C(CCS(=O)(=O)c1ccccc1)Nc1ccccn1` the CPE inhibition was inactive: -7.58%. With `COc1ccc(S(=O)(=O)Nc2ccc3c(c2)CC(=O)N([C@@H](C)CO)C[C@H](C)[C@H](CN(C)Cc2ccc(C(=O)Nc4ccccc4N)cc2)O3)cc1` the CPE inhibition was inconclusive: 30.6%. With `CC(C)(C)OC(=O)NC(Cc1ccccc1)C(=O)NCCCC(=O)O` (stereo not given) the CPE inhibition was inconclusive: 23.4%. In the case of `CC(C)(C)[C@@H]1C=C(C(=O)N2CCCCCCC2)O[C@H](OCCCCO)C1`, the CPE inhibition is reported as inactive: -9.22%. For `Cc1ccc(C2=C(O)C(=O)C(c3ccc(C)cc3)=C(O)C2=O)cc1`, the CPE inhibition was active: 55.7%. For `COc1ccc(C2CC(c3ccccc3)=NN2S(=O)(=O)c2ccccc2)c(OC)c1` (stereo not given), the CPE inhibition was active: 22.2%. In the case of `CCN1CCN(C(=O)c2cn(CC)c3ccc(S(=O)(=O)N(C)C)cc3c2=O)CC1`, the CPE inhibition is reported as inconclusive: 45.6%. In the case of `N#C[C@H]1[C@@H](c2ccc(/C=C/c3ccccc3)cc2)[C@@H](CO)N1C(=O)Nc1ccccc1F`, the CPE inhibition is reported as inactive: 1%. With `COc1ccc(CCC(=O)OCC(=O)c2ccc[nH]2)cc1OC` the CPE inhibition was inactive: -0.144%. With `COc1ccc(C)cc1NC(=O)COC(=O)C1CCN(C(=O)c2ccc(Cl)cc2)CC1` the CPE inhibition was inconclusive: 51.7%. For `CNC(=S)N(C)/N=C1/C(=O)N(Cc2c(Cl)cccc2Cl)c2ccccc21`, the CPE inhibition was inconclusive: 24.4%. For `CCOc1cc(/C=C2/SC(=S)N(Cc3ccccc3)C2=O)ccc1O`, the CPE inhibition was inconclusive: 56.2%. In the case of `C#CCOCCOCCOCCNc1nc(N2CCN(C(=O)C([C@@H](C)O)n3cc([C@@H](N)CCCCN)nn3)CC2)nc(N2CCN(C(=O)[C@H](CC(N)=O)n3cc(C(N)[C@@H](C)CC)nn3)CC2)n1` (stereo not given in full), the CPE inhibition is reported as inconclusive: 51.9%. With `C[C@@H]1CN(S(=O)(=O)c2ccc3c(c2)OCCO3)CCN1S(=O)(=O)c1c(F)cccc1F` the CPE inhibition was inconclusive: 35.8%. With `Cc1ccc(S(=O)(=O)N[C@H]2CC[C@@H](CCn3cc(-c4cccc(F)c4)nn3)O[C@H]2CO)cc1` the CPE inhibition was active: 34.3%. For `COc1ccc(OC)c(CN2CCCC(CCC(=O)N(C)CCc3ccccn3)C2)c1` (stereo not given), the CPE inhibition was inconclusive: 20.1%. With `O=C1C=C(c2ccc3c(c2)OCO3)C[C@@H](c2ccc3c(c2)OCO3)C1` the CPE inhibition was inconclusive: 88.3%. With `Cc1ccc(N2CCC(N3CCN(C)C(CCO)C3)CC2)cc1` (stereo not given) the CPE inhibition was inconclusive: 22%. In the case of `Cc1ccc(S(=O)(=O)N2CCCCC2)cc1NC(=O)c1cc2ccccc2o1`, the CPE inhibition is reported as inactive: 7.28%. In the case of `CN(C)C(=O)c1ccc(-c2ccc3c(c2)[C@H]2[C@H](CCN2S(=O)(=O)c2cn(C)cn2)[C@H](CO)N3)cc1`, the CPE inhibition is reported as inconclusive: 85.7%. With `COc1ccc(NC(=O)N(C)C[C@@H]2Oc3ccc(NC(=O)c4ccncc4)cc3CC(=O)N([C@H](C)CO)C[C@@H]2C)cc1` the CPE inhibition was active: 44%. For `O=C(Nc1ccc(Cl)cc1)N[C@H]1CC[C@H](CCNC(=O)c2cc(Cl)cc(Cl)c2)O[C@@H]1CO`, the CPE inhibition was inactive: -11.3%. With `C[C@H]1CN([C@@H](C)CO)C(=O)c2cc(C#Cc3ccc(F)cc3)cnc2O[C@@H]1CN(C)CC1CCOCC1` the CPE inhibition was inconclusive: 24.1%. With `Cc1ccccc1C(=O)Nc1cccc(-c2ccc(N3CCOCC3)nn2)c1` the CPE inhibition was inconclusive: 27.9%. With `CCCNC(=O)c1nc(C)c(C)nc1C(=O)Nc1cccc(Cl)c1` the CPE inhibition was inconclusive: 37.3%. For `O=C(C[C@@H]1CC[C@H]2[C@@H](COC[C@H](O)CN2S(=O)(=O)c2ccc(F)cc2)O1)N[C@H]1CCN(Cc2ccccc2)C1`, the CPE inhibition was active: 24.2%. For `C[C@@H]1CN([C@H](C)CO)C(=O)c2cc(NC(=O)Nc3ccc(C(F)(F)F)cc3)ccc2O[C@@H]1CN(C)Cc1ccncc1`, the CPE inhibition was active: 56.7%. In the case of `Cc1ccccc1NC(=O)Cn1nnc2ccccc21`, the CPE inhibition is reported as inactive: 0.761%. With `COC(=O)c1ccc(C(=O)NC2CCCc3c2cnn3-c2ccc(C)c(C)c2)cc1` (stereo not given) the CPE inhibition was inconclusive: 35.1%. With `Cc1cccc(S(=O)(=O)N2CC[C@@H]3[C@H]2c2cc(C#Cc4ccc(F)cc4)ccc2N[C@@H]3CO)c1` the CPE inhibition was active: 65.6%. For `CC(C)NC(=O)Nc1ccc2c(c1)CC(=O)N([C@H](C)CO)C[C@H](C)[C@@H](CN(C)S(=O)(=O)c1ccccc1)O2`, the CPE inhibition was inactive: -0.638%. In the case of `COc1ccc(C(Nc2ccc(S(=O)(=O)N3CCOCC3)cc2)C(=O)NCCC(C)C)cc1OC` (stereo not given), the CPE inhibition is reported as inconclusive: 56.1%. With `C[C@H]1CCCCO[C@H](CN(C)C(=O)CCCN(C)C)[C@@H](C)CN([C@@H](C)CO)C(=O)c2cc(NC(=O)c3ccccc3)ccc2O1` the CPE inhibition was active: 52.9%. In the case of `CC(C)C(=O)Nc1ccc2c(c1)C(=O)N(C)[C@H]1CC[C@@H](CC(=O)NCc3ccccc3)O[C@H]1CO2`, the CPE inhibition is reported as inconclusive: 97.2%. With `COc1ccc(S(=O)(=O)Cc2ccc(C(=O)NC3CC3)o2)cc1` the CPE inhibition was active: 24.5%. For `C[C@H](CO)N1C[C@H](C)[C@H](CN(C)C(=O)Nc2ccc(C(F)(F)F)cc2)OCCCC[C@H](C)Oc2ccc(NS(C)(=O)=O)cc2C1=O`, the CPE inhibition was inconclusive: 43.9%. In the case of `O=C(Cc1ccccc1)N[C@@H]1c2ccccc2CC[C@@H]1OCc1ccccc1`, the CPE inhibition is reported as inconclusive: 66.6%. With `CCCNC(=O)C[C@H]1CC[C@H]2[C@@H](COC[C@H](O)CN2C(=O)C2CCOCC2)O1` the CPE inhibition was inactive: -3.64%. For `O=C(O)c1ccc(N2CCCS2(=O)=O)cc1`, the CPE inhibition was inconclusive: 21.3%. In the case of `CN(C)CC#Cc1ccc([C@H]2[C@H](CO)N3CCCCN(C(=O)C4CCC4)C[C@@H]23)cc1`, the CPE inhibition is reported as inactive: 3.88%. In the case of `CCCS(=O)(=O)NC(=O)C1(C)CCCN(C(=O)c2cccc(Cl)c2)C1` (stereo not given), the CPE inhibition is reported as inconclusive: 57.8%. In the case of `CC(C)C#Cc1ccc2c(c1)O[C@H](CN(C)C(=O)Nc1ccccc1)[C@H](C)CN([C@@H](C)CO)S2(=O)=O`, the CPE inhibition is reported as inactive: 11.4%. For `c1ccc(-c2csc(-c3ccc(-c4csnn4)cc3)n2)cc1`, the CPE inhibition was active: 54.2%. For `COc1cc(/C=C(\C#N)C(=O)Nc2ccccn2)ccc1O`, the CPE inhibition was inconclusive: 24.2%. In the case of `O=C(NC12CC3CC(CC(C3)C1)C2)c1cccnc1Cl`, the CPE inhibition is reported as inconclusive: 25.3%. With `CCc1ccc2[nH]c3nc(SCCN4CCOCC4)nnc3c2c1` the CPE inhibition was inconclusive: 21.6%.
